Results on eleven compounds are retold here after PubChem BioAssay AID248 (DTP/NCI, 2004).

The list shows only some results of the screen, not a fair sample: it gathers tests that were run many times, whatever their T/C, doses with no T/C, and many T/C values between a quarter and a half above the control. Other doses and runs of a compound stand elsewhere. T/C is the treated group as % of the vehicle group. Some entries give survivors of the animals treated and no T/C: the source holds a T/C of zero for them, seemingly a mark for toxic or unscored doses. Some survivor counts are full or nearly so, which does not show that the dose was tolerated: the source hardly ever lists a survival T/C far under the control, and the zero likely stands for such cases as well. Counts of survivors are from the toxicity check (mostly the fifth day) where no day follows; animals may have died later. Schedule codes are those of the source, read here as Q, the interval in days (D) or hours (H), X, the number of doses. Some entries were tested several times; the values are given in rising order. Where survival is the endpoint, the PubChem record calls one and a half times the control and up active, and a quarter to a half above the control has no call in these data; cut-offs in other NCI protocols can differ. Some T/C values are followed by the survivors on the day toxicity was checked, most often the fifth; where none is given, no animal had died by that day.

The assay concerns L1210 leukemia ip in BDF1 mice, survival T/C. Kind of assay: NCI In Vivo Anticancer Drug Screen. Data for tumor model L1210 Leukemia (intraperitoneal) in B6D2F1 (BDF1) mice. To be noted: T/C endpoint: mean survival time, higher T/C = longer survival.
Where [1] appears, read: dose: 100.0 mg/kg/injection, schedule: Q04DX003 (ip), vehicle: saline.
Where [2] appears, read: dose: 200.0 mg/kg/injection, schedule: Q04DX003 (ip), vehicle: saline.
[3] abbreviates: dose: 400.0 mg/kg/injection, schedule: Q04DX003 (ip), vehicle: saline.

`CN(C)C(=O)OC1CCCC1[N+](C)(C)CCCCCCCC[N+](C)(C)C1CCCC1OC(=O)N(C)C` (stereo not given): the survivor count is reported as 0 of 6 (dose: 2.5 mg/kg/injection, schedule: Q04DX003 (ip), vehicle: saline); 0 of 6 (dose: 5.0 mg/kg/injection, schedule: Q04DX003 (ip), vehicle: saline); 0 of 6 (dose: 10.0 mg/kg/injection, schedule: Q04DX003 (ip), vehicle: saline); 0 of 6 (dose: 12.5 mg/kg/injection, schedule: Q01DX009 (ip), vehicle: saline); 0 of 6 (dose: 20.0 mg/kg/injection, schedule: Q04DX003 (ip), vehicle: saline); 0 of 6 (dose: 25.0 mg/kg/injection, schedule: Q01DX009 (ip), vehicle: saline). Besides, the survivor count is, setting by setting: (dose: 40.0 mg/kg/injection, schedule: Q04DX003 (ip), vehicle: saline) 0 of 6; (dose: 50.0 mg/kg/injection, schedule: Q01DX009 (ip), vehicle: saline) 0 of 6; under setting [1], 0 of 6; under setting [2], 0 of 6; under setting [3], 0 of 6.

For the compound `O=C(CCCCCCC(=O)C[n+]1ccccc1CO)C[n+]1ccccc1CO`, the survivor count is, setting by setting: (dose: 25.0 mg/kg/injection, schedule: Q04DX003 (ip), vehicle: saline) 0 of 6; (dose: 50.0 mg/kg/injection, schedule: Q04DX003 (ip), vehicle: saline) 0 of 6; under setting [1], 0 of 6; under setting [2], 0 of 6; under setting [3], 0 of 6.

`CSc1cc(C)c(O)c(C)c1`: for the setting “dose: 400.0 mg/kg/injection, schedule: Q01DX009 (ip), vehicle: other”, the survivor count is 5 of 6.

Take `CC(C)(O)C#N`: the survivor count is given as 0 of 4 (dose: 20.0 mg/kg/injection, schedule: Q01DX001 (ip), vehicle: saline); 0 of 6 (dose: 30.0 mg/kg/injection, schedule: Q01DX001 (ip), vehicle: saline); 0 of 4 (dose: 40.0 mg/kg/injection, schedule: Q01DX001 (ip), vehicle: saline); 0 of 6 (dose: 60.0 mg/kg/injection, schedule: Q01DX001 (ip), vehicle: saline); 0 of 6 (dose: 75.0 mg/kg/injection, schedule: Q01DX001 (ip), vehicle: saline); 0 of 4 (dose: 80.0 mg/kg/injection, schedule: Q01DX001 (ip), vehicle: saline). For the same compound, the survivor count was 0 of 4 (dose: 100.0 mg/kg/injection, schedule: Q01DX001 (ip), vehicle: saline); 0 of 6 (dose: 150.0 mg/kg/injection, schedule: Q01DX001 (ip), vehicle: saline); 0 of 4 (dose: 200.0 mg/kg/injection, schedule: Q01DX001 (ip), vehicle: saline); 0 of 6 (dose: 300.0 mg/kg/injection, schedule: Q01DX001 (ip), vehicle: saline); 0 of 4 (dose: 400.0 mg/kg/injection, schedule: Q01DX001 (ip), vehicle: saline).

Turning to `CCOC(=O)N1C(=O)C2C3CCC(O3)C2C1=O` (stereo not given), the survivor count (dose: 100.0 mg/kg/injection, schedule: Q01DX009 (ip), vehicle: saline with Tween-80) is given as 0 of 3.

In the case of `Cc1cccc(/C2=C/CCCCCC2)c1`, under “dose: 340.0 mg/kg/injection, schedule: Q01DX009 (ip), vehicle: acetone”, the survivor count is recorded as 0 of 6.

`ICc1cccc(CI)c1`: the survivor count (dose: 25.0 mg/kg/injection, schedule: Q01DX009 (ip), vehicle: carboxymethylcellulose (CMC)) is 3 of 6; the survivor count (dose: 50.0 mg/kg/injection, schedule: Q01DX001 (ip), vehicle: other) is 0 of 6; the survivor count (dose: 100.0 mg/kg/injection, schedule: Q01DX001 (ip), vehicle: other) is 2 of 6; the survivor count (dose: 200.0 mg/kg/injection, schedule: Q01DX001 (ip), vehicle: other) is reported as 1 of 6; the survivor count (dose: 400.0 mg/kg/injection, schedule: Q01DX001 (ip), vehicle: other) is on record as 2 of 6.

Turning to `CN(C)CCOC(=O)c1cccc(CCl)c1CCl`, the survivor count is, setting by setting: (dose: 175.0 mg/kg/injection, schedule: Q01DX009 (ip), vehicle: saline) 1 of 6; (dose: 350.0 mg/kg/injection, schedule: Q01DX009 (ip), vehicle: saline) 0 of 6.

In the case of `COC1=C(C)C(=O)c2c(c(COC(N)=O)c3n2CC2C3N2C)C1=O` (stereo not given), the T/C runs as follows: (dose: 1.9 mg/kg/injection, schedule: Q01DX001 (ip), vehicle: saline) 130 % of control; (dose: 2.9 mg/kg/injection, schedule: Q01DX001 (ip), vehicle: other) 125 % of control; (dose: 2.9 mg/kg/injection, schedule: Q01DX001 (ip), vehicle: saline) 128 % of control; (dose: 4.5 mg/kg/injection, schedule: Q01DX001 (ip), vehicle: other) 132 % of control; (dose: 4.5 mg/kg/injection, schedule: Q01DX001 (ip), vehicle: saline) 135 % of control; (dose: 6.7 mg/kg/injection, schedule: Q01DX001 (ip), vehicle: other) 132 % of control. In addition, the T/C is, setting by setting: (dose: 6.7 mg/kg/injection, schedule: Q01DX001 (ip), vehicle: saline) 125 % of control; (dose: 10.0 mg/kg/injection, schedule: Q01DX001 (ip), vehicle: other) 144 % of control; (dose: 15.0 mg/kg/injection, schedule: Q01DX001 (ip), vehicle: other) 126 % of control [5 of 6 alive]. Further, the survivor count by setting is: (dose: 3.0 mg/kg/injection, schedule: Q01DX009 (ip), vehicle: carboxymethylcellulose (CMC)) 3 of 6; (dose: 5.0 mg/kg/injection, schedule: Q01DX009 (ip), vehicle: carboxymethylcellulose (CMC)) 2 of 6; (dose: 23.0 mg/kg/injection, schedule: Q01DX001 (ip), vehicle: carboxymethylcellulose (CMC)) 0 of 6; (dose: 35.0 mg/kg/injection, schedule: Q01DX001 (ip), vehicle: carboxymethylcellulose (CMC)) 1 of 6.

For the compound `Cc1cc(C)[c]([Hg][Cl])c(C)c1`, the survivor count is 6 of 6 (dose: 25.0 mg/kg/injection, schedule: Q04DX003 (ip), vehicle: saline with Tween-80); 0 of 6 (dose: 50.0 mg/kg/injection, schedule: Q01DX009 (ip), vehicle: saline with Tween-80); 0 of 6 (dose: 50.0 mg/kg/injection, schedule: Q04DX003 (ip), vehicle: saline with Tween-80); 0 of 6 and 5 of 6 (dose: 100.0 mg/kg/injection, schedule: Q04DX003 (ip), vehicle: saline with Tween-80); 0 of 6 (dose: 200.0 mg/kg/injection, schedule: Q04DX003 (ip), vehicle: saline with Tween-80); 0 of 6 (dose: 400.0 mg/kg/injection, schedule: Q04DX003 (ip), vehicle: saline with Tween-80).

`NP(Cl)(c1ccccc1)(c1ccccc1)c1ccccc1`: the survivor count by setting is: (dose: 1.56 mg/kg/injection, schedule: Q04DX003 (ip), vehicle: Klucel (hydroxypropylcellulose) (HPC)) 0 of 6; (dose: 3.13 mg/kg/injection, schedule: Q04DX003 (ip), vehicle: Klucel (hydroxypropylcellulose) (HPC)) 0 of 6; (dose: 6.25 mg/kg/injection, schedule: Q04DX003 (ip), vehicle: Klucel (hydroxypropylcellulose) (HPC)) 0 of 6; (dose: 12.5 mg/kg/injection, schedule: Q04DX003 (ip), vehicle: Klucel (hydroxypropylcellulose) (HPC)) 0 of 6; (dose: 25.0 mg/kg/injection, schedule: Q04DX003 (ip), vehicle: Klucel (hydroxypropylcellulose) (HPC)) 0 of 6; (dose: 50.0 mg/kg/injection, schedule: Q04DX003 (ip), vehicle: Klucel (hydroxypropylcellulose) (HPC)) 0 of 6. Further, the survivor count reads like this: (dose: 100.0 mg/kg/injection, schedule: Q04DX003 (ip), vehicle: Klucel (hydroxypropylcellulose) (HPC)) 0 of 6; (dose: 200.0 mg/kg/injection, schedule: Q04DX003 (ip), vehicle: Klucel (hydroxypropylcellulose) (HPC)) 0 of 6; (dose: 400.0 mg/kg/injection, schedule: Q04DX003 (ip), vehicle: Klucel (hydroxypropylcellulose) (HPC)) 0 of 6.
